# Measurements from patent US9050315B2, “In vivo and ex vivo expansion of hematopoietic stem cells with a targeted combination of clinically tested, FDA approved drugs” (The Trustees of the University of Pennsylvania, priority 2010, dated 2015).
# At least one compound was matched to its structure with a doubt left.
# Tested on: LSK cells
# Assay: Rapamycin treatment of secondary recipients of Gsk3-depleted BM
# Details: BM from rapamycin-treated secondary recipients
structure (smiles),measurement,value
CO[C@H]1C[C@@H]2CC[C@@H](C)[C@@](O)(O2)C(=O)C(=O)N2CCCC[C@H]2C(=O)O[C@H]([C@H](C)C[C@@H]2CC[C@@H](O)[C@H](OC)C2)CC(=O)[C@H](C)/C=C(\C)[C@@H](O)[C@@H](OC)C(=O)[C@H](C)C[C@H](C)/C=C/C=C/C=C/1C [rapamycin],survival of tertiary recipients of Gsk3-depleted BM,rescued survival
